Data reported in PubChem BioAssay AID588590 (National Center for Advancing Translational Sciences (NCATS), 2011).
In all, about 390,000 compounds went through this assay and about 4,000 (1%) were called active. The shares of active, inactive and inconclusive entries below differ from those in the screen. The call rests on the fitted dose curve; in most records, active means well fitted inhibition curve with a large enough effect; inconclusive means small, poorly fitted or top-dose-only effect, or another doubt; inactive means no such curve, though single readings can be large or run the other way. Potencies of inconclusive entries are doubtful fits and often do not repeat.

The chains behind the UniProt entries cited, without tags or fusion partners. Where a name states a change or a piece, a line headed by the entry shows the natural chain unless it says otherwise.
UniProt Q9UNA4: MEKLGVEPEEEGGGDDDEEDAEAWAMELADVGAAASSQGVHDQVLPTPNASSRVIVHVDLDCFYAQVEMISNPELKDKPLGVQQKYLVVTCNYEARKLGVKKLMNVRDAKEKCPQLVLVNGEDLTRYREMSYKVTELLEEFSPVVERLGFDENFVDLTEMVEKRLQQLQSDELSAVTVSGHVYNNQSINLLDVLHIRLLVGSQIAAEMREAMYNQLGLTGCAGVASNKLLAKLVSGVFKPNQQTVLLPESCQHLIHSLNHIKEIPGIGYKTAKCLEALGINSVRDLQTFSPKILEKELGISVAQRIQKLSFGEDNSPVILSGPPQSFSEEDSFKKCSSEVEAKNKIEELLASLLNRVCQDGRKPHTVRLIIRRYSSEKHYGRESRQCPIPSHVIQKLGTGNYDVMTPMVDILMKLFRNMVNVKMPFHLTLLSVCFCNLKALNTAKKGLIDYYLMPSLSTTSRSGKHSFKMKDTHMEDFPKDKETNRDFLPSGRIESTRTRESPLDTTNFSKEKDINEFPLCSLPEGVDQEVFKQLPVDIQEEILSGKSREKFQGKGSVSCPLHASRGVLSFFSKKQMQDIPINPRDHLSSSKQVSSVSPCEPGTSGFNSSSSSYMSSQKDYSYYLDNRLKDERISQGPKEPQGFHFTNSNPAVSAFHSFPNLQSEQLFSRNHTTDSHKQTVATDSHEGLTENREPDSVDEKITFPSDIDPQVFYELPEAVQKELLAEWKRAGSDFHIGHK

Molecular target: DNA polymerase iota (Homo sapiens) (UniProt Q9UNA4)
Assay: qHTS for Inhibitors of Polymerase Iota
Conditions: Pol iota fluorescent replication assay, 10 min; series mostly up to 115 µM
How it was run: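 Fluorescent replication assay read twice, at 0 min and 10 min after adding 50 nM (final) substrate. Enzyme (10 nM) and compounds were first incubated 15 min at room temperature; enzyme-free buffer wells were negative controls.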
Potency means the concentration at half of the fitted maximal effect.

Potency, inactive:
Cc1ccc(-c2cc(C(=O)N3CCN(S(=O)(=O)c4ccc(Br)cc4)CC3)[nH]n2)cc1C
CC1=C(c2ccc(C)c(C)c2)S(=O)(=O)N=C1N1CCC(C(=O)NCCc2ccco2)CC1
Cn1ncc([N+](=O)[O-])c1C(=O)Nc1ccccc1C(=O)O
Cc1nc(Nc2nc(CSc3nc4ccccc4[nH]3)cc(=O)[nH]2)nc2ccccc12
CCOc1ccc(Oc2nc(NCC(C)C)nc(NC(C)(C)C)n2)nn1

Potency, inconclusive:
COc1ccccc1OCCCCCc1c(C)n[nH]c1C 79.4 µM [inhibitor, partial curve, poor fit]
Cc1ccc(Sc2c(C(=O)Nc3ccc(F)cc3F)c(C(F)(F)F)nn2C)cc1 12.6 µM [inhibitor, partial curve, poor fit]
CCn1c(=O)c(C(=O)Nc2ccccc2F)c(O)c2ccccc21 2.82 µM [inhibitor, full curve, poor fit]
CC1=CC2(O)OCCN(CCO)C2=CC1=O (stereo not given) 44.7 µM [inhibitor, partial curve, poor fit]
COc1ccccc1C(=O)NC(=O)CSc1nnc(N)s1 17.8 µM [inhibitor, full curve]
O=C(O)CCc1ccc(-c2cccs2)n1NC(=O)c1ccccc1Br 28.2 µM [inhibitor, partial curve, poor fit]
CN(Cc1ccccc1)C(=O)c1nc2ccccn2c1CN1CCC(N2CCOCC2)CC1 89.1 µM [inhibitor, single point]
CC(c1ccccc1)N1C(=O)/C(=C/c2ccncc2)SC1=S (stereo not given) 20 µM [inhibitor, partial curve, poor fit]
CC(=O)c1ccc(NC(=O)CC2Nc3cccc4cccc(c34)NC2=O)cc1 (stereo not given) 6.31 µM [inhibitor, partial curve, poor fit]
NC(N)=NC(N)=Nc1ccccc1 100 µM [inhibitor, single point]
COC(=O)CCN(C(C)=O)c1ccc(N)cc1 8.91 µM [inhibitor, partial curve, poor fit]
Nc1ccc2c(c1)OCCOCCOCCOCCOCCO2 31.6 µM [inhibitor, single point]

2 records drawn at random from those above, as already listed:
Potency, inconclusive:
COc1ccccc1C(=O)NC(=O)CSc1nnc(N)s1 17.8 µM [inhibitor, full curve]
COC(=O)CCN(C(C)=O)c1ccc(N)cc1 8.91 µM [inhibitor, partial curve, poor fit]

Next part:

Potency, active:
CCCn1c(/C=C/c2ccco2)nc2ccccc21 44.7 µM
CCC(=O)Oc1ccc(C/C(=N\O)c2ccc(O)cc2O)o1 20 µM
NNc1cccc(C=Cc2ccccc2)cc1=O 25.1 µM
